Results reported in the supplement of paper PMC4604168 (melanoma cell lines).
The list shows a part of the results. Single values are uncertain, as repeats are few or missing.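 Cells were imaged in 1,536-well plates, and nuclei stained with an antibody against cleaved PARP were counted against all DNA-stained nuclei to give the apoptosis fraction. Screening doses were chosen to leave most cells alive, and resting and induced cleaved-PARP levels differ strongly between cell lines.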

Tests used:
Experiment in all cases: cleaved PARP positive nuclei fraction relative to DMSO control; melanoma cells; higher = more apoptosis
Settings in all cases: library dose: low library concentration; 72 h
501Mel = system: 501Mel
A101D = system: A101D
A2058 = system: A2058
A375 = system: A375
C32 = system: C32
CBRC008 = system: CBRC008 (line from a melanoma biopsy)
CBRC014 = system: CBRC014 (line from a melanoma biopsy)
CBRC016 = system: CBRC016 (line from a melanoma biopsy)
CBRC017 = system: CBRC017 (line from a melanoma biopsy)

Structure (SMILES)	cleaved PARP positive nuclei fraction (501Mel) [%]	cleaved PARP positive nuclei fraction (A101D) [%]	cleaved PARP positive nuclei fraction (A2058) [%]	cleaved PARP positive nuclei fraction (A375) [%]	cleaved PARP positive nuclei fraction (C32) [%]	cleaved PARP positive nuclei fraction (CBRC008) [%]	cleaved PARP positive nuclei fraction (CBRC014) [%]	cleaved PARP positive nuclei fraction (CBRC016) [%]	cleaved PARP positive nuclei fraction (CBRC017) [%]
Cn1cnc2c(F)c(Nc3ccc(Br)cc3Cl)c(C(=O)NOCCO)cc21 [selumetinib] + C[C@]1(c2nc3c(C(N)=O)cccc3[nH]2)CCCN1 [Veliparib] (first compound 0.015 µM, partner dose 1.4 µM)	1040	148	39.1	142	94	98.2	83	101	235
CS(=O)(=O)c1ccc(C(=O)Nc2ccc(Cl)c(-c3ccccn3)c2)c(Cl)c1 [vismodegib] + Nc1ccn([C@@H]2O[C@H](CO)[C@@H](O)C2(F)F)c(=O)n1 [gemcitabine] (first compound 1 µM, partner dose 0.0004 µM)	76.4	81.8	65.5	42.6	144	66.1	104	37.6	110
CC1(C)CCC(c2ccc(Cl)cc2)=C(CN2CCN(c3ccc(C(=O)NS(=O)(=O)c4ccc(N[C@H](CCN5CCOCC5)CSc5ccccc5)c(S(=O)(=O)C(F)(F)F)c4)cc3)CC2)C1 + CS(=O)(=O)CCNCc1ccc(-c2ccc3ncnc(Nc4ccc(OCc5cccc(F)c5)c(Cl)c4)c3c2)o1 [lapatinib] (first compound 0.4 µM, partner dose 0.8 µM)	86.5	211	207	371	113	310	449	637	395
CS(=O)(=O)c1ccc(C(=O)Nc2ccc(Cl)c(-c3ccccn3)c2)c(Cl)c1 [vismodegib] + CC(C)CCN1c2nc(Nc3cc(F)c(O)c(F)c3)ncc2N(C)C(=O)C1C [BID1870] (first compound 1 µM, partner dose 0.2 µM)	29.4	29.3	58.2		73	161	129	74.8	104
COc1ccc(C2=N[C@@H](c3ccc(Cl)cc3)[C@@H](c3ccc(Cl)cc3)N2C(=O)N2CCNC(=O)C2)c(OC(C)C)c1 [Nutlin-3] + O=C1NC(=O)/C(=C/c2ccc(-c3ccc(F)cc3O)o2)S1 [AS252424] (first compound 0.1 µM, partner dose 1 µM)	79.4	17.7	61.6		74	261	78.3	71.9	90.6
COc1ccc(C2=N[C@@H](c3ccc(Cl)cc3)[C@@H](c3ccc(Cl)cc3)N2C(=O)N2CCNC(=O)C2)c(OC(C)C)c1 [Nutlin-3] + O=S(=O)(c1ccccc1)N(CC(F)(F)F)c1ccc(C(O)(C(F)(F)F)C(F)(F)F)cc1 [T0901317] (first compound 0.1 µM, partner dose 1.4 µM)	118	28.9	93.1		117	59.8	129	45.9	113
NC(=O)c1ccc(N(C(N)=O)c2c(F)cccc2F)nc1-c1ccc(F)cc1F + CCCCCCCCCCCC1=C(O)C(=O)C=C(O)C1=O [Embelin] (first compound 0.4 µM, partner dose 1.2 µM)	59	18	243		154	143	89.2	217	104
CCCCCCCCc1ccc(CCC(N)(CO)CO)cc1 [fingolimod] + CC(C)CCN1c2nc(Nc3cc(F)c(O)c(F)c3)ncc2N(C)C(=O)C1C [BID1870] (first compound 2 µM, partner dose 0.2 µM)	148	47.1	71.2		201	151	126	55.6	85.4
CN(c1ncccc1CNc1nc(Nc2ccc3c(c2)CC(=O)N3)ncc1C(F)(F)F)S(C)(=O)=O + COc1ccc(-c2ccc3c(N4CCOCC4)nc(N4C[C@@H](C)O[C@@H](C)C4)nc3n2)cc1CO [KU0063794] (first compound 0.08 µM, partner dose 0.02 µM)	56.4	7.75	73.5		113	267	119	15	71.3
Cn1sc(=O)n(Cc2ccccc2)c1=O + Cc1cc([N+](=O)[O-])ccc1NS(=O)(=O)c1cc(Cl)ccc1Cl [FH535] (first compound 0.4 µM, partner dose 1 µM)	125	29.1	91.3		90.4	608	165	1360	416
CC1(C)CCC(c2ccc(Cl)cc2)=C(CN2CCN(c3ccc(C(=O)NS(=O)(=O)c4ccc(N[C@H](CCN5CCOCC5)CSc5ccccc5)c(S(=O)(=O)C(F)(F)F)c4)cc3)CC2)C1 + O=c1cc(-c2cccc3c2Sc2ccccc2S3)oc(N2CCOCC2)c1 [KU55933] (first compound 0.4 µM, partner dose 1 µM)	35.8	45.5	123		105	462	371	211	294

Exported as a markdown table: entries from further up.

| Structure (SMILES) | cleaved PARP positive nuclei fraction (501Mel) [%] | cleaved PARP positive nuclei fraction (A101D) [%] | cleaved PARP positive nuclei fraction (A2058) [%] | cleaved PARP positive nuclei fraction (A375) [%] | cleaved PARP positive nuclei fraction (C32) [%] | cleaved PARP positive nuclei fraction (CBRC008) [%] | cleaved PARP positive nuclei fraction (CBRC014) [%] | cleaved PARP positive nuclei fraction (CBRC016) [%] | cleaved PARP positive nuclei fraction (CBRC017) [%] |
| --- | --- | --- | --- | --- | --- | --- | --- | --- | --- |
| CS(=O)(=O)c1ccc(C(=O)Nc2ccc(Cl)c(-c3ccccn3)c2)c(Cl)c1 [vismodegib] + CC(C)CCN1c2nc(Nc3cc(F)c(O)c(F)c3)ncc2N(C)C(=O)C1C [BID1870] (first compound 1 µM, partner dose 0.2 µM) | 29.4 | 29.3 | 58.2 |  | 73 | 161 | 129 | 74.8 | 104 |
| COc1ccc(C2=N[C@@H](c3ccc(Cl)cc3)[C@@H](c3ccc(Cl)cc3)N2C(=O)N2CCNC(=O)C2)c(OC(C)C)c1 [Nutlin-3] + O=C1NC(=O)/C(=C/c2ccc(-c3ccc(F)cc3O)o2)S1 [AS252424] (first compound 0.1 µM, partner dose 1 µM) | 79.4 | 17.7 | 61.6 |  | 74 | 261 | 78.3 | 71.9 | 90.6 |
